# Microarray screen: hit calls

From ROBIN, a set of small-molecule microarray screens (doi:10.1002/anie.202211358).

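Each compound is printed as two spots on a slide made to bind it covalently, so it has no test concentration; the read-out is fluorescence of the bound, labelled oligonucleotide. For the PreQ1, TPP and SAM-II riboswitches the laboratory earlier reported (doi:10.1038/s41467-019-09493-3) 1 µM RNA, 2 h, and a rule that included a mean Z-score above 3 (spot signal-to-noise against the whole library), a score well above that on a control array, and duplicate spots agreeing (coefficient of variation under 100). The data file gives only the calls; its cut-offs may differ, and compounds hitting several targets are kept. A missing hit is not proof of no binding, and a hit is not a measured affinity.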 A compound is marked hit if it was called a hit and none if it was screened but was not. Compounds were drawn at random from those tested, without regard to their results.

Oligonucleotides screened, 5′ to 3′:
SAM-II: SAM-II riboswitch RNA pseudoknot, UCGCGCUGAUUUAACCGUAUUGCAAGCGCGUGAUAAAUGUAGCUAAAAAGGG. Hit rate about 1% of about 21,000 compounds.

| structure | SAM-II |
|---|---|
| `CC(=O)Nc1cc(NC(C)=O)ncn1` | none |
| `CCOc1cc(C2C(C#N)=C(N)Oc3cc(C)oc(=O)c32)ccc1O` (stereo not drawn) | none |
| `C=CCSCC(=O)N1CC[C@H]2CC[C@@H](C1)N2` | none |
| `CN1[C@H]2CC[C@@H]1CN(C(=O)c1cn3c(n1)CNCC3)CC2` | none |
| `NC1CCCN(C(=O)c2cc3ccccc3s2)CC1` (stereo not drawn) | none |
| `COc1cccc(-c2n[nH]cc2C(=O)NCC(O)c2ccccc2Cl)c1` (stereo not drawn) | none |
| `O=S1(=O)N=C(NCCCO)c2ccccc21` | none |
| `Cc1c(C#N)c(N)c(C(=O)c2ccccc2)n1Cc1ccccc1` | none |
| `Cc1ccc(-c2ncc(C(=O)N3C[C@H](O)[C@@H](N4CCCC4)C3)c(O)n2)cc1` | none |
| `CC1(C)CC(CCN)(Cc2ccccc2)CCO1` (stereo not drawn) | none |
| `CN(C)c1ccc(O)c2c1C[C@H]1C[C@H]3[C@H](N(C)C)C(=O)C(C(N)=O)=C(O)[C@@]3(O)C(=O)C1=C2O` | none |
| `COC(=O)C1=C(C)OC(N)=C(C#N)C1c1cc(Br)c(C)s1` (stereo not drawn) | none |
| `NC(=O)c1ccc[n+](CCO)c1.[Cl-]` | none |
| `COc1ccccc1[As](=O)(O)CC(O)COc1ccc(Cl)cc1Cl` (stereo not drawn) | none |
| `COc1cccc(CNCc2ccc(F)cc2)c1OC` | none |
| `CC(C)OC(=O)C1=C(N)OC2=C(C(=O)CC(C)(C)C2)C12C(=O)Nc1ccccc12` (stereo not drawn) | none |
| `CCO.Nc1nc(N)c2cc(Sc3ccc4ccccc4c3)ccc2n1` | none |
| `Cc1c(CN2CCN(Cc3ccccc3)CC(O)C2)cnn1C` (stereo not drawn) | none |
| `CC(=O)N1CCN(Cc2cncn2Cc2ccccc2)CC(O)C1` (stereo not drawn) | none |
| `CC(=O)N1CCN(Cc2ccc(C(F)(F)F)cc2F)CC(O)C1` (stereo not drawn) | none |
| `C=CCNC1CC(=O)N(c2ccc(Oc3ccccc3)cc2)C1=O` (stereo not drawn) | none |
| `Cn1c(CNc2ccc(C(=N)N)cc2)nc2cc(C(=O)N(CCC(=O)O)c3ccccn3)ccc21` | none |
| `O=C(c1ccc2c(c1)CCC2)N1CCC(Cc2ccc(CO)cc2)C1` (stereo not drawn) | none |
| `O=C(O)c1cnn2c(=S)nc[nH]c12` | none |
| `CCOC(=O)c1c(N)sc(C(=O)N2CCCCC2)c1C` | none |
| `CC(C)C(=O)Oc1ccc(NC2=NS(=O)(=O)c3ccccc32)cc1` | none |
| `O=C(O)C(Cc1ccccc1)Nc1ncnc2c1oc1ccccc12` (stereo not drawn) | none |
| `O=C(c1cccc2c1OCC2)N1CC[C@@H](c2ccc3c(c2)OCO3)[C@H](O)C1` | none |
| `Cc1nc(N)nc(C)c1CC(=O)N1CCC2(CCC(=O)N(C)CC2)CC1` | none |
| `CN(C)c1ccc(-c2nc3ncc(Cl)c(N4CCN(CC(=O)Nc5nccs5)CC4)c3[nH]2)cc1` | none |
| `Nc1cc(=O)c2ccccc2o1` | none |
| `Cc1ccc(-c2nc3cc(F)ccc3cc2CN2CCN(CCO)CC2)cc1` | none |
| `COc1ccc(Br)cc1CNCc1ccc(OC)c(OC)c1` | none |
| `CCCN[C@H]1CCc2nc(N)sc2C1` | none |
| `CC(C)Cc1cc(C(=O)N(CCCO)Cc2ccncc2)n(C)n1` | none |
| `Cc1ccccc1N1CCCN(CC(C)(C)N)CC1` | none |
| `CC1CCN(C(=O)CCNC2CCSC2)CC1` (stereo not drawn) | none |
| `CCC(C)n1cc(C=C2C(C)=C(C#N)c3nc(N)c(C#N)c(C)c32)c2ccccc21` (stereo not drawn) | none |
| `COc1ccc(S(=O)(=O)N2CCC(NC3CC(=O)N(c4ccc(F)cc4)C3=O)CC2)cc1` (stereo not drawn) | none |
| `Cc1ccc(-c2cccc(C(=O)NCCN3CCCCC3CO)c2)o1` (stereo not drawn) | none |
| `Nc1ccc2c(c1Cl)C(=O)c1ccc(N)c(Cl)c1C2=O` | none |
| `Nc1c(N2CCOCC2)c2ccccc2oc1=O` | none |
| `COCCNc1nc2c(c(=O)n(C)c(=O)n2C)n1Cc1ccccc1F` | none |
| `CCCCn1c(N)c(C(=O)OCC)c2nc3ccccc3nc21` | none |
| `COc1ccccc1NCc1ccccc1NS(=O)(=O)c1ccc(C)cc1` | none |
| `CNc1ccc(C(=O)NCC2CCN(CCC(F)(F)F)C2)cc1` (stereo not drawn) | none |
| `CCc1nc(C)ccc1OCC(=O)N1CCNCC1C(=O)NC1CC1` (stereo not drawn) | none |
| `COc1ccc(CC2=NC(=O)C3C(C)N=C([C@@H](CCc4ccccc4)[C@@H](C)O)N3N2)cc1OC` (stereo partly drawn) | none |
| `Cc1cc(C)c2c(N)c(C(=O)Nc3cccc(C)c3C)sc2n1` | none |
| `COC1CCC(C(=O)c2ccc3nc4c(cc3c2)CCCO4)CC1` (stereo not drawn) | none |
| `CCN(CC)CCNc1nc(SC)nc2sc3c(c12)CC(C)(CC)OC3` (stereo not drawn) | none |
| `NCC1CC2c3ccccc3C1c1ccccc12` (stereo not drawn) | none |
| `CC(C)C[C@@H](CO)NC(=O)CSCc1ccccc1Cl` | none |
| `CC(c1ccccc1)c1nnc(N)s1` (stereo not drawn) | none |
| `CCOC(=O)C(Cc1ccc(O)cc1)Nc1nc2ccccc2o1` (stereo not drawn) | none |
| `CCCCn1cnc2cc(NCc3ccc(Br)cc3)ccc21` | none |
| `O=C1Nc2ccc(I)cc2C1=Cc1cc(Br)c(O)c(Br)c1` | none |
| `CC1=CC(C)C2(CO)COC(c3cccnc3)C1C2C` (stereo not drawn) | none |
| `CCc1ccc(CN2CC[C@@H]3[C@@H](CCC(=O)N3CCCCO)C2)nc1` | none |
| `CCCCCC(=O)N1CCCC1` | none |
| `CN(C)c1nsc(N2CC[C@](C)(O)[C@@H](O)C2)n1` | none |
| `Nc1nonc1C(=O)NCCNCc1ccccc1OCc1ccccc1Cl` | none |
| `CCN(CCO)CCCC(C)Nc1ccnc2cc(Cl)ccc12` (stereo not drawn) | none |
| `CC(C)CNc1nnnc2c1sc1nc(N3CCOCC3)c3c(c12)CCCC3` | none |
| `CN(C)C[C@H]1C[C@@H](CO)CN(S(=O)(=O)c2ccccc2C#N)C1` | none |
| `O=C(CCOc1ccccc1)N1CCCC2(CCNCC2)CC1` | none |
| `CCN1C(=O)c2ccc(CN)c3cccc1c23` | none |
| `C[n+]1c(CCCCO)sc2ccccc21.[I-]` | none |
| `Cc1nc(C(C)C)sc1C(=O)N1CCNCC1C(=O)N1CCCC1` (stereo not drawn) | none |
| `O=c1cc(-c2ccccc2)oc2ccc(O)cc12` | none |
| `CCSc1nnc2c(n1)OC(C=Cc1ccc([N+](=O)[O-])o1)Nc1ccccc1-2` (stereo not drawn) | none |
| `COc1ccc(CCNCCc2ccc(OC)cc2)cc1` | none |
| `Cc1ccc(S(=O)(=O)c2nnn3c2nc(NC(C)C)c2ccccc23)cc1` | none |
| `Ic1ccc(NCc2cn3ccccc3n2)cc1` | none |
| `Cc1ccc(S(=O)(=O)N(CC(O)CN2CCCCC2)c2ccccc2)cc1` (stereo not drawn) | none |
| `CC(=O)Nc1ccc(Cc2nc3c([nH]2)c(=O)n(C)c(=O)n3C)cc1` | none |
| `Cc1nc2ccccc2n1CCC(=O)N1C[C@@H](CN2CCOCC2)[C@@H](CO)C1` | none |
| `CC(C)(N)c1ccc(-c2nc3ccccc3nc2-c2ccccc2)cc1` | none |
| `Cc1nccn1C1(C(=O)O)CCN(C(=O)Cc2ccc(CO)cc2)CC1` | none |
| `CC(C)c1ocnc1C(=O)NCC1CNCCO1` (stereo not drawn) | none |
| `CCOC(=O)c1sc2nc(Cc3ccccc3)nc(NCC3CCCO3)c2c1C` (stereo not drawn) | none |
| `Nc1cc(C(=O)N2CCC(c3nccn3Cc3ccncc3)CC2)ccn1` | none |
| `C=CCN(C(=O)c1cccc(NCC(=O)O)c1)C1CCCC1` | none |
| `COCCNc1c2c(c(C#N)c3nc4ccccc4n13)CCC2` | none |
| `CC(=Cc1ccccc1)C1C(C#N)=C(N)Oc2[nH]nc(C)c21` (stereo not drawn) | none |
| `N[C@H]1c2ccccc2C[C@@H]1NC(=O)C1CCN(Cc2ccco2)CC1` | none |
| `O=C(CCc1cc2n(n1)CCCNC2)N1CCN(CCn2cncn2)CC1` | none |
| `Cc1ccc(C(C)C)c(OCC(O)CN2CCN(c3ccccc3F)CC2)c1.Cl.Cl` (stereo not drawn) | none |

The last 8 entries again:

structure,SAM-II
CCOC(=O)c1sc2nc(Cc3ccccc3)nc(NCC3CCCO3)c2c1C (stereo not drawn),none
Nc1cc(C(=O)N2CCC(c3nccn3Cc3ccncc3)CC2)ccn1,none
C=CCN(C(=O)c1cccc(NCC(=O)O)c1)C1CCCC1,none
COCCNc1c2c(c(C#N)c3nc4ccccc4n13)CCC2,none
CC(=Cc1ccccc1)C1C(C#N)=C(N)Oc2[nH]nc(C)c21 (stereo not drawn),none
N[C@H]1c2ccccc2C[C@@H]1NC(=O)C1CCN(Cc2ccco2)CC1,none
O=C(CCc1cc2n(n1)CCCNC2)N1CCN(CCn2cncn2)CC1,none
Cc1ccc(C(C)C)c(OCC(O)CN2CCN(c3ccccc3F)CC2)c1.Cl.Cl (stereo not drawn),none